PubChem BioAssay AID1259254, NCATS – 2017
In all, the deposit lists about 59,000 reagents; shown is a random part of them. About 1,550 of all reagents (2.6%) count as active. 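G2 share is only a proxy for re-replication; each gene was hit by three separate siRNAs, and active genes were retested.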 Raw values vary from plate to plate and are shown uncorrected. A number with no mark means an inactive call. Not given: the amount of reagent.

Test: 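Gene knock-downs that lead to re-replication, shown by excess G2 DNA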 (primary screen)
System: human HCT116 colorectal cancer cells
Knock-down reagent: single siRNA against human genes
Timing: 3 days
Read-out: 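Imaged Hoechst DNA stain sorts each cell into a cycle phase by DNA amount; per plate, G2 fraction set to 0% for non-targeting and 100% for GMNN siRNA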
Scale: G2 robust z-score and G2 cells, % of GMNN control: higher = more G2 cells, more excess DNA replication; raw share of cells in G2: higher = larger share of cells with G2 DNA content
Hit rule: 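An siRNA counts as active if its G2 robust z-score lies at least 5 MADs above the screen median; here such calls match roughly 38% of GMNN control or more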

Target gene | PubChem SID | G2 robust z-score | G2 cells, % of GMNN control | raw share of cells in G2 (%)
TRMT1 (tRNA methyltransferase 1) | SID160743920 | 0.795 | 8.56 | 7.9
TRMT1 (tRNA methyltransferase 1) | SID160743921 | -0.768 | -2.44 | 3.57
TRMT1 (tRNA methyltransferase 1) | SID160743922 | -1.35 | -6.52 | 3.57
MCHR2-AS1 (MCHR2 antisense RNA 1) | SID160734275 | -0.078 | 2.42 | 4.52
MCHR2-AS1 (MCHR2 antisense RNA 1) | SID160771400 | 0.148 | 4.01 | 5.06
MCHR2-AS1 (MCHR2 antisense RNA 1) | SID160771401 | -0.505 | -0.585 | 2.67
MRPS31 (mitochondrial ribosomal protein S31) | SID160727504 | -0.468 | -0.325 | 5.18
MRPS31 (mitochondrial ribosomal protein S31) | SID160727510 | -0.402 | 0.138 | 4
MRPS31 (mitochondrial ribosomal protein S31) | SID160727516 | 2.59 | 21.2 | 11.1
SCFD1 (sec1 family domain containing 1) | SID160735852 | 3.86 | 30.1 | 16.8
SCFD1 (sec1 family domain containing 1) | SID160735853 | 1.47 | 13.3 | 9.63
SCFD1 (sec1 family domain containing 1) | SID160735854 | -0.608 | -1.31 | 2.68
KRT9 (keratin 9) | SID160731175 | 0.802 | 8.61 | 8.96
KRT9 (keratin 9) | SID160776400 | 0.819 | 8.73 | 8.22
KRT9 (keratin 9) | SID160776401 | 0.398 | 5.77 | 6.32
HHLA2 (HHLA2 member of B7 family) | SID160730046 | -0.0799 | 2.41 | 5.93
HHLA2 (HHLA2 member of B7 family) | SID160730047 | 0.984 | 9.89 | 8.22
HHLA2 (HHLA2 member of B7 family) | SID160730048 | -1.09 | -4.7 | 1.41
TOP1 (DNA topoisomerase I) | SID160718244 | -0.197 | 1.58 | 6.27
TOP1 (DNA topoisomerase I) | SID160718245 | -0.818 | -2.79 | 3.56
TOP1 (DNA topoisomerase I) | SID160718246 | 1.14 | 11 | 8.36
NPRL3 (NPR3 like, GATOR1 complex subunit) | SID160719660 | 1.28 | 12 | 10.4
NPRL3 (NPR3 like, GATOR1 complex subunit) | SID160719661 | -0.338 | 0.591 | 4.13
NPRL3 (NPR3 like, GATOR1 complex subunit) | SID160734998 | -0.176 | 1.73 | 3.96
PACS1 (phosphofurin acidic cluster sorting protein 1) | SID160744093 | -1.17 | -5.27 | 2.5
PACS1 (phosphofurin acidic cluster sorting protein 1) | SID160744094 | 0.043 | 3.27 | 5.49
PACS1 (phosphofurin acidic cluster sorting protein 1) | SID160744095 | 0.286 | 4.98 | 4.73
PRXL2CP1 (PRXL2C pseudogene 1) | SID160770486 | -0.385 | 0.257 | 3.44
PRXL2CP1 (PRXL2C pseudogene 1) | SID160770487 | -0.535 | -0.796 | 2.88
PRXL2CP1 (PRXL2C pseudogene 1) | SID160770488 | 0.233 | 4.6 | 4.14
NOL4L-DT (NOL4L divergent transcript) | SID160758884 | 1.57 | 14 | 8.53
NOL4L-DT (NOL4L divergent transcript) | SID160758885 | 3.64 | 28.6 | 11.7
NOL4L-DT (NOL4L divergent transcript) | SID160758886 | 0.247 | 4.71 | 4.71
HOMEZ (homeobox and leucine zipper encoding) | SID160746369 | -0.0712 | 2.47 | 5.22
HOMEZ (homeobox and leucine zipper encoding) | SID160746370 | 0.299 | 5.07 | 7.75
HOMEZ (homeobox and leucine zipper encoding) | SID160746371 | 1.42 | 12.9 | 8.93
RGS8 (regulator of G protein signaling 8) | SID160753236 | -0.252 | 1.2 | 6.23
RGS8 (regulator of G protein signaling 8) | SID160753237 | -0.599 | -1.25 | 4.43
RGS8 (regulator of G protein signaling 8) | SID160753238 | -0.805 | -2.7 | 3.46
C15orf61 (chromosome 15 open reading frame 61) | SID160758291 | 0.869 | 9.08 | 6.87
C15orf61 (chromosome 15 open reading frame 61) | SID160758293 | 0.908 | 9.35 | 5.8
C15orf61 (chromosome 15 open reading frame 61) | SID160758294 | -0.507 | -0.599 | 2.86
IRGC (immunity related GTPase cinema) | SID160724478 | -0.183 | 1.68 | 5.26
IRGC (immunity related GTPase cinema) | SID160724479 | -0.589 | -1.18 | 2.66
IRGC (immunity related GTPase cinema) | SID160745002 | 0.0376 | 3.23 | 5.62
AIRIM (AFG2 interacting ribosome maturation factor) | SID160733575 | -1 | -4.09 | 1.84
AIRIM (AFG2 interacting ribosome maturation factor) | SID160742591 | 4.84 | 37 | 16.8
AIRIM (AFG2 interacting ribosome maturation factor) | SID160742592 | 0.677 | 7.73 | 7.53
SPECC1 | SID160754299 | -0.891 | -3.3 | 2.68
SPECC1 | SID160754301 | -0.444 | -0.158 | 2.95
SPECC1 | SID160754302 | 0.177 | 4.22 | 4.26
LYG2 (lysozyme g2) | SID160762215 | -0.614 | -1.35 | 3.09
LYG2 (lysozyme g2) | SID160762216 | -0.953 | -3.74 | 1.85
LYG2 (lysozyme g2) | SID160762218 | 2.78 | 22.5 | 10.4
CASD1 (CAS1 domain sialic acid O acetyltransferase 1) | SID160748131 | 3.14 | 25 | 16
CASD1 (CAS1 domain sialic acid O acetyltransferase 1) | SID160748132 | -0.322 | 0.699 | 4.59
CASD1 (CAS1 domain sialic acid O acetyltransferase 1) | SID160748133 | -1.05 | -4.42 | 2.62
IGBP1C (IGBP1 family member C) | SID160733939 | -0.614 | -1.35 | 2.61
IGBP1C (IGBP1 family member C) | SID160769599 | 1.03 | 10.2 | 7.64
IGBP1C (IGBP1 family member C) | SID160769600 | -0.34 | 0.572 | 3.44
NUDCD3 (NudC domain containing 3) | SID160736166 | -0.736 | -2.21 | 3.58
NUDCD3 (NudC domain containing 3) | SID160736168 | 0.0561 | 3.36 | 5.4
NUDCD3 (NudC domain containing 3) | SID160736169 | -0.494 | -0.508 | 3.12
KRT7 (keratin 7) | SID160731174 | 3.21 | 25.6 | 13.6
KRT7 (keratin 7) | SID160776397 | 0.541 | 6.78 | 7.51
KRT7 (keratin 7) | SID160776398 | -0.659 | -1.67 | 5.05
GPRACR (GPR107 adjacent cis regulating lncRNA) | SID160767331 | -0.868 | -3.14 | 2.67
GPRACR (GPR107 adjacent cis regulating lncRNA) | SID160767332 | -0.397 | 0.178 | 3.59
GPRACR (GPR107 adjacent cis regulating lncRNA) | SID160767333 | 0.139 | 3.95 | 6.43
DAO (D-amino acid oxidase) | SID160752496 | 3.82 | 29.8 | 15.9
DAO (D-amino acid oxidase) | SID160752507 | -0.339 | 0.581 | 5.17
DAO (D-amino acid oxidase) | SID160752518 | -1.25 | -5.82 | 2.09
SEMA4G (semaphorin 4G) | SID160746651 | -0.368 | 0.379 | 5.8
SEMA4G (semaphorin 4G) | SID160746652 | -0.281 | 0.993 | 4.7
SEMA4G (semaphorin 4G) | SID160746653 | 2.46 | 20.2 | 11.6
RPL6P16 (ribosomal protein L6 pseudogene 16) | SID160726667 | -0.767 | -2.43 | 2.62
RPL6P16 (ribosomal protein L6 pseudogene 16) | SID160726668 | -0.721 | -2.1 | 2.13
RPL6P16 (ribosomal protein L6 pseudogene 16) | SID160726669 | -0.773 | -2.47 | 2.67
SAA4 (serum amyloid A4, constitutive) | SID160716318 | 1.13 | 10.9 | 7.77
SAA4 (serum amyloid A4, constitutive) | SID160716319 | 2.51 | 20.6 | 12.1
SAA4 (serum amyloid A4, constitutive) | SID160731686 | -0.825 | -2.84 | 3.6
SOX14 (SRY-box transcription factor 14) | SID160719966 | -0.143 | 1.96 | 5.41
SOX14 (SRY-box transcription factor 14) | SID160719967 | 3.64 | 28.6 | 15.3
SOX14 (SRY-box transcription factor 14) | SID160732005 | 1.43 | 13 | 10.4
ATP2B2 (ATPase plasma membrane Ca2+ transporting 2) | SID160721634 | 0.45 | 6.13 | 7.52
ATP2B2 (ATPase plasma membrane Ca2+ transporting 2) | SID160721645 | -0.447 | -0.175 | 4.72
ATP2B2 (ATPase plasma membrane Ca2+ transporting 2) | SID160721655 | 0.307 | 5.13 | 6.38

Entries listed so far whose gene name starts with H or h:
Target gene | PubChem SID | G2 robust z-score | G2 cells, % of GMNN control | raw share of cells in G2 (%)
HHLA2 (HHLA2 member of B7 family) | SID160730046 | -0.0799 | 2.41 | 5.93
HHLA2 (HHLA2 member of B7 family) | SID160730047 | 0.984 | 9.89 | 8.22
HHLA2 (HHLA2 member of B7 family) | SID160730048 | -1.09 | -4.7 | 1.41
HOMEZ (homeobox and leucine zipper encoding) | SID160746369 | -0.0712 | 2.47 | 5.22
HOMEZ (homeobox and leucine zipper encoding) | SID160746370 | 0.299 | 5.07 | 7.75
HOMEZ (homeobox and leucine zipper encoding) | SID160746371 | 1.42 | 12.9 | 8.93
